Results from patent publication US20240052042A1 (Novartis, published 2024).
No constants are given. Whether binding was seen depends on the method and setting. Some entries that bind do so weakly or less than the wild type.

The chains behind the UniProt entries cited, without tags or fusion partners. Residues count along the entry.
UniProt P02769, residues 25-607: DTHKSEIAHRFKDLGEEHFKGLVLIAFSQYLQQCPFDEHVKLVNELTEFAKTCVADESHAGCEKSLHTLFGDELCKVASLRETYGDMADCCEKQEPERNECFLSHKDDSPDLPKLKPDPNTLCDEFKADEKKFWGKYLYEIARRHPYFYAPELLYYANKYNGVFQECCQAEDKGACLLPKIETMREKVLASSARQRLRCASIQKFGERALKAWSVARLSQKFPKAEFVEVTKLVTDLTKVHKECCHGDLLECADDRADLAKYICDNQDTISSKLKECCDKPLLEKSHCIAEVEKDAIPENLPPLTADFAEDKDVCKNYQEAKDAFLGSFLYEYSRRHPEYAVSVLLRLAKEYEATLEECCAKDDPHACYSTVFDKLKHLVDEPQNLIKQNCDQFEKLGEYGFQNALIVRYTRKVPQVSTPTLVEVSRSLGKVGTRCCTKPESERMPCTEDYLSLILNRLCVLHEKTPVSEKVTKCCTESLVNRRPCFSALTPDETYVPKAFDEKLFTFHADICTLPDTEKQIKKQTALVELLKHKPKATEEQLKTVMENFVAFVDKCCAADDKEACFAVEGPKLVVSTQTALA

T1: rNPR1-ANP complex (rat)
T1 sequence: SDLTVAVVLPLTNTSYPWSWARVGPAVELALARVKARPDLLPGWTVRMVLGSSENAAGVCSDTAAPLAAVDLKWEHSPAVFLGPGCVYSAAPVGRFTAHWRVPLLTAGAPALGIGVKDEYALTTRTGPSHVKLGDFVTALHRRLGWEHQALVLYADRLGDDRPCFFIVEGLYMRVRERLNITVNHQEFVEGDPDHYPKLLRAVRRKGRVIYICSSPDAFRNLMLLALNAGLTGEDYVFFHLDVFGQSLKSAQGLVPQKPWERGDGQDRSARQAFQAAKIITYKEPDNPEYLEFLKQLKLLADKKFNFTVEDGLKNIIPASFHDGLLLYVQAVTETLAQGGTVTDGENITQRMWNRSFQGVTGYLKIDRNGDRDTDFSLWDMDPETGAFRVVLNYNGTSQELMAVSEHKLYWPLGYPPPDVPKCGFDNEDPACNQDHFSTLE
T1 sequence (peptide): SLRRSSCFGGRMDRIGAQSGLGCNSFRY

T2: human NPR3 (counter target) (human, UniProt P17342 27-481, limits assumed)
T2 construct: Pannings used hNPR3-hFc; also called hNPR3; hNPR3-hFc
T2 sequence (looked up): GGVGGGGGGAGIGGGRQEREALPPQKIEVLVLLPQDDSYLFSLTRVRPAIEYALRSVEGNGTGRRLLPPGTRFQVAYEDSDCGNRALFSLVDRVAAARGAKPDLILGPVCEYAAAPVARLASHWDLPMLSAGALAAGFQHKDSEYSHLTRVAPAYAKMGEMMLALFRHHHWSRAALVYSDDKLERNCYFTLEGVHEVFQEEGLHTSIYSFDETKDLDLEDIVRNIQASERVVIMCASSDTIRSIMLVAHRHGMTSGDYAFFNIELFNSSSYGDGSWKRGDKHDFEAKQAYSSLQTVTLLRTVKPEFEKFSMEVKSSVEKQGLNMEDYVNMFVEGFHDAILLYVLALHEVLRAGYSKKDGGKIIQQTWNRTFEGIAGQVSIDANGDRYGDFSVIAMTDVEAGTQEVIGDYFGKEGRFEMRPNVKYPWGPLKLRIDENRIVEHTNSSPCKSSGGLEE

T3: human NPR3 in the presence of ANP (human, UniProt P17342 27-481; P01160 124-151, limits assumed)
T3 construct: also called hNPR3 + 100 nM ANP
T3 sequence (looked up): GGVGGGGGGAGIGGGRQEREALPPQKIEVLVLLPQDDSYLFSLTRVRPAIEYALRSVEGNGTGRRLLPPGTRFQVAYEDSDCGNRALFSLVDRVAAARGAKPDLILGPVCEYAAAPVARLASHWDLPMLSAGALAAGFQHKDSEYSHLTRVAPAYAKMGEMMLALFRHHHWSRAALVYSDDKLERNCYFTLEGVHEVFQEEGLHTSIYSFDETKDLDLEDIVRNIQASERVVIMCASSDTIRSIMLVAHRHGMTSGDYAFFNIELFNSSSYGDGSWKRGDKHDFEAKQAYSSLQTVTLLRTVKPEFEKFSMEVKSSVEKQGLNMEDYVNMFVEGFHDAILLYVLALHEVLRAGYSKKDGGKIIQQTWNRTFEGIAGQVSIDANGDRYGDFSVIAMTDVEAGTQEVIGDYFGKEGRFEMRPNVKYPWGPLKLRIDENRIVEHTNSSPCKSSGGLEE
T3 sequence (peptide, looked up): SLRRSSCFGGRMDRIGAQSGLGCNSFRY


Experiments:
BSA (bovine) = BSA (bovine) (UniProt P02769); assay: ELISA, IgG titrated on coated antigen, fluorescence [Cont.]
rNPR1-ANP complex (rat) [1] = molecular target: T1, rNPR1-ANP complex (rat); assay: ELISA, IgG titrated on coated antigen with ANP (250 fold molar excess), fluorescence [Cont.]
rNPR1-ANP complex (rat) [2] = molecular target: T1, rNPR1-ANP complex (rat); assay: ELISA, IgG titrated on coated antigen with ANP (250 fold molar excess), fluorescence
[3] = molecular target: T2, human NPR3 (counter target); assay: ELISA, IgG titrated on coated antigen, fluorescence [Cont.]
[4] = molecular target: T3, human NPR3 in the presence of ANP; assay: ELISA, IgG titrated on coated antigen with ANP (250 fold molar excess), fluorescence [Cont.]
[5] = molecular target: T2, human NPR3 (counter target); assay: FabCys affinity determination

Binder | binding (BSA (bovine)) | binding (rNPR1-ANP complex (rat) [1]) | other results
YY02 (IgG format) (antibody, V domains shown, IgG format; also called YY02_LALA) VH: EVQLVESGGGLVKPGGSLRLSCAASGFTFSSYSMNWVRQAPGKGLEWVSSISSSSSYIYYADSVKGRFTISRDNAKNSLYLQMNSLRAEDTAVYYCARSGYRGVYGFDYWGQGTLVTVSS VL: DIQMTQSPSSVSASVGDRVTITCRASQGISSWLAWYQQKPGKAPKLLIYAASSLQSGVPSRFSGSGSGTDFTLTISSLQPEDFATYYCQQYYHSPLTFGQGTKVEIKR | no binding (tested: 1000 nM) | binds | 
YY03 (IgG format) (antibody, V domains shown, IgG format; also called YY03_LALA) VH: EVQLLESGGGLVQPGGSLRLSCAASGFTFSSYAISWVRQAPGKGLEWVSAISGSGGSTYYAESVKGRFTISRDNSKNTLYLQMNSLRAEDTAVYYCARESGYVYYLKFDYWGQGTLVTVSS VL: DIQMTQSPSSLSASVGDRVTITCRASQSISSYLNWYQQKPGKAPKLLIYAASSLQSGVPSRFSGSGSGTDFTLTISSLQPEDFATYYCQQHVRVPITFGQGTKVEIKR | no binding (tested: 1000 nM) | binds | 
YY04 (IgG format) (antibody, V domains shown, also called YY04_LALA) VH: EVQLVESGGGLVKPGGSLRLSCAASGFTFSNYWISWVRQAPGKGLEWVGRIKSKTYGGTTDYAEPVKGRFTISRDDSKNTLYLQMNSLKTEDTAVYYCAREKYSIRARGHGDYGFDVWGQGTLVTVSS VL: DIQMTQSPSSLSASVGDRVTITCRASQGISNYLAWYQQKPGKVPKLLIYAASTLQSGVPSRFSGSGSGTDFTLTISSLQPEDVATYYCQQGYHAPFTFGQGTKVEIKR | no binding (tested: 1000 nM) | binds | 
XX01 (IgG format) (antibody, V domains shown) VH: EVQLLESGGGLVQPGGSLRLSCAASGFTFNTHYIHWVRQAPGKGLEWVSSISSSGQSTYYADSVKGRFTISRDNSKNTLYLQMNSLRAEDTAVYYCARERGYVYYHMFDPWGQGTLVTVSS VL: DIVLTQSPATLSLSPGERATLSCRASQSITRNYLAWYQQKPGQAPRLLIYGASSRATGIPARFSGSGSGTDFTLTISSLEPEDFAVYYCQQHSMYPRTFGQGTKVEIK |  |  | binding (rNPR1-ANP complex (rat) [2]): binds
XX03 (IgG format) (antibody, V domains shown) VH: EVQLLESGGGLVQPGGSLRLSCAASGFTFSSYWMNWVRQAPGKGLEWVSVIESKGNYIFYADSVKGRFTISRDNSKNTLYLQMNSLRAEDTAVYYCARDRYSMIYSYGAGAFDYWGQGTLVTVSS VL: DIQMTQSPSSLSASVGDRVTITCRASQGISSYLAWYQQKPGKAPKLLIYTASTLQSGVPSRFSGSGSGTDFTLTISSLQPEDFATYYCMQSYEKPRTFGQGTKVEIK | no binding (tested: 200 nM) | binds | 
XX07 (IgG format) (antibody, V domains shown) VH: QVQLLESGGGLVQPGGSLRLSCAASGFTFSSYWMNWVRQAPGKGLEWVSAISSDGSYTYYADSVKGRFTISRDNSKNTLYLQMNSLRAEDTAVYYCARDRYSMIYSYGAGAFDYWGQGTLVTVSS VL: DIQMTQSPSSLSASVGDRVTITCRASQGISSYLAWYQQKPGKAPKLLIYTASTLQSGVPSRFSGSGSGTDFTLTISSLQPEDFATYYCQQIWTVPRTFGQGTKVEIK | no binding (tested: 200 nM) | binds | 
XX12 (IgG format) (antibody, V domains shown) VH: QVQLLESGGGLVQPGGSLRLSCAASGFTFSSYWMNWVRQAPGKGLEWVSAISSDGSYTYYADSVKGRFTISRDNSKNTLYLQMNSLRAEDTAVYYCARDRYSMIYSYGAGAFDYWGQGTLVTVSS VL: DIQMTQSPSSLSASVGDRVTITCRASQGISSYLAWYQQKPGKAPKLLIYTASTLQSGVPSRFSGSGSGTDFTLTISSLQPEDFATYYCQQIWMAPRTFGQGTKVEIK | no binding (tested: 200 nM) | binds | binding [3]: binds; binding [4]: binds
XX04 (IgG format) (antibody, V domains shown) VH: QVQLLESGGGLVQPGGSLRLSCAASGFTFSSYWMNWVRQAPGKGLEWVSAISSDGSYTYYADSVKGRFTISRDNSKNTLYLQMNSLRAEDTAVYYCARDRYSMIYSYGAGAFDYWGQGTLVTVSS VL: DIQMTQSPSSLSASVGDRVTITCRASQGISSYLAWYQQKPGKAPKLLIYTASTLQSGVPSRFSGSGSGTDFTLTISSLQPEDFATYYCQQEWVKPRTFGQGTKVEIK |  | binds | binding [4]: binds
XX06 (IgG format) (antibody, V domains shown) VH: QVQLLESGGGLVQPGGSLRLSCAASGFTFSSYWMNWVRQAPGKGLEWVSAISSDGSYTYYADSVKGRFTISRDNSKNTLYLQMNSLRAEDTAVYYCARDRYSMIYSYGAGAFDYWGQGTLVTVSS VL: DIQMTQSPSSLSASVGDRVTITCRASQGISSYLAWYQQKPGKAPKLLIYTASTLQSGVPSRFSGSGSGTDFTLTISSLQPEDFATYYCQQTWRKPRTFGQGTKVEIK | no binding (tested: 200 nM) | binds | 
XX08 (antibody, V domains shown, x axis reads IgG conc; [nM]; also called XX08 (IgG format)) VH: EVQLLESGGGLVQPGGSLRLSCAASGFTFNTHYIHWVRQAPGKGLEWVSSIGGQGGMTLYADSVKGRFTISRDNSKNTLYLQMNSLRAEDTAVYYCARERGYVYYHMFDPWGQGTLVTVSS VL: DIVLTQSPATLSLSPGERATLSCRASQSITRNYLAWYQQKPGQAPRLLIYGASSRATGIPARFSGSGSGTDFTLTISSLEPEDFAVYYCQQHSMYPRTFGQGTKVEIKR | no binding (tested: 200 nM) | binds | binding [4]: binds
YY05 (IgG format) (antibody, V domains shown, also called YY05_LALA) VH: EVQLVQSGAEVKKPGESLKISCKGSGYSFTSYWISWVRQMPGKGLEWMGIIYPGTSYTRYSPSFQGQVTISADKSISTAYLQWSSLKASDTAMYYCARGAVAGQLGFDHWGQGTLVTVSS VL: QSVLTQPPSVSGAPGQRVTISCTGSSSNIGAGYDVHWYQQLPGTAPKLLIYGNSNRPSGVPDRFSGSKSGTSASLAITGLQAEDEADYYCQSYYTSSHGPVFGGGTKLTVLG | no binding (tested: 1000 nM) |  | 
YY07 (IgG format) (antibody, V domains shown, also called YY07_LALA) VH: EVQLVQSGAEVKKPGESLKISCKGSGYSFTSYWISWVRQMPGKGLEWMGIIYPGTSYTRYSPSFQGQVTISADKSISTAYLQWSSLKASDTAMYYCARGSLPGLLGFDHWGQGTLVTVSS VL: QSVLTQPPSVSGAPGQRVTISCTGSSSNIGAGYDVHWYQQLPGTAPKLLIYGNSNRPNGVPDRFSGSKSGTSASLAITGLQAEDEADYYCQSYDSPTSSSVFGGGTKLTVLG | no binding (tested: 1000 nM) |  | 
YY06 (IgG format) (antibody, V domains shown, also called YY06_LALA) VH: EVQLLESGGGLVQPGGSLRLSCAASGFTFSSYAISWVRQAPGKGLEWVSAISGSGGSTYYAESVKGRFTISRDNSKNTLYLQMNSLRAEDTAVYYCARPYLGDRRSYGFDHWGQGTLVTVSS VL: QSALTQPASVSGSPGQSITISCTGTSSDVGSYNLVSWYQQHPGKAPKLMIYEGSKRPSGVSNRFSGSKSGNTASLTISGLQAEDEADYYCSSYGFHIVVVVFGGGTKLTVLG | no binding (tested: 1000 nM) |  | 
WW01 (FabCys format) (Fab, V domains shown, Monovalent disulfide-bridged FabCys) VH: QVQLLESGGGLVQPGGSLRLSCAASGFTFNTHYIHWVRQAPGKGLEWVSSISGSGSNTYYADSVKGRFTISRDNSKNTLYLQMNSLRAEDTAVYYCARERGYVYYHMFDPWGQGTLVTVSS VL: DIVLTQSPATLSLSPGERATLSCRASQSITRNYLAWYQQKPGQAPRLLIYGASSRATGIPARFSGSGSGTDFTLTISSLEPEDFAVYYCQQHSMYPRTFGQGTKVEIK |  |  | binding [5]: binds
WW06 (FabCys format) (Fab, V domains shown) VH: QVQLVQSGAEVKKPGESLKISCKGSGYSFTSYWIAWVRQMPGKGLEWMGRIDPDNSYTRYSPSFQGQVTISADKSISTAYLQWSSLKASDTAMYYCARWLSPGYALGEQPAGMDHWGQGTLVTVSS VL: DIVLTQPPSVSGAPGQRVTISCTGSSSNIGAGYAVHWYQQLPGTAPKLLIYSNNKRPSGVPDRFSGSKSGTSASLAITGLQAEDEADYYCQSYDLQKSSRVFGGGTKLTVL |  |  | binding [5]: binds
